# Experimental data: patent US20040005538A1
# Protein sequences, listed by entry. Tags and fused reporters are not part of them. Lines headed by an entry give the natural chain unless they say otherwise; changes in a name come on top.
# UniProt P20023: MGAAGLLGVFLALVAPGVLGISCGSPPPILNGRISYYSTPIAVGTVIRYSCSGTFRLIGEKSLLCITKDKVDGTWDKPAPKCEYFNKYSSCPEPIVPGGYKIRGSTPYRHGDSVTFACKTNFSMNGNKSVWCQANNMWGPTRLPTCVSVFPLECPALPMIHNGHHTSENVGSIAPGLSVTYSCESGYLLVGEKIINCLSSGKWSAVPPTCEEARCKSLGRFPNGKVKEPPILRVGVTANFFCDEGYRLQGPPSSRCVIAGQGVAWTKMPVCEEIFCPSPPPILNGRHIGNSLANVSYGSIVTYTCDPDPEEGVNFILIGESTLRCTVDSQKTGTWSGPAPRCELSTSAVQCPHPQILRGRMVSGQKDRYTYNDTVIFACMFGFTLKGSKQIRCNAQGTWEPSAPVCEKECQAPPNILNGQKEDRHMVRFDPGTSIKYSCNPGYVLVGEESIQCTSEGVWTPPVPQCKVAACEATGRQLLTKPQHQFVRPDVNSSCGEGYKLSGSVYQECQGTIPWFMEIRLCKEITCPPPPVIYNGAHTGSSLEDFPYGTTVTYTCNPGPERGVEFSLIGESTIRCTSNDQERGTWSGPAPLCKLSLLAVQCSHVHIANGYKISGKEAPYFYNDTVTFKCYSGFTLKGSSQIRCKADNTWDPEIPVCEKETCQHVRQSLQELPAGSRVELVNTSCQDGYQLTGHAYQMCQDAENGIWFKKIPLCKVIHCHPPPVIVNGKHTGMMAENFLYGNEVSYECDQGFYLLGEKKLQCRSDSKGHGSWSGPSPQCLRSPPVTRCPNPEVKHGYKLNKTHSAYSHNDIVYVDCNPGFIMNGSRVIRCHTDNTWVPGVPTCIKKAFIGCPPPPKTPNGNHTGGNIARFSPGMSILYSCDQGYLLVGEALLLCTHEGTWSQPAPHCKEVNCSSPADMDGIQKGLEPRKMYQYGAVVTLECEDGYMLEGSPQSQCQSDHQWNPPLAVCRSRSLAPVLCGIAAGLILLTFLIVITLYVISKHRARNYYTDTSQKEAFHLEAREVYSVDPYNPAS
# UniProt P01024: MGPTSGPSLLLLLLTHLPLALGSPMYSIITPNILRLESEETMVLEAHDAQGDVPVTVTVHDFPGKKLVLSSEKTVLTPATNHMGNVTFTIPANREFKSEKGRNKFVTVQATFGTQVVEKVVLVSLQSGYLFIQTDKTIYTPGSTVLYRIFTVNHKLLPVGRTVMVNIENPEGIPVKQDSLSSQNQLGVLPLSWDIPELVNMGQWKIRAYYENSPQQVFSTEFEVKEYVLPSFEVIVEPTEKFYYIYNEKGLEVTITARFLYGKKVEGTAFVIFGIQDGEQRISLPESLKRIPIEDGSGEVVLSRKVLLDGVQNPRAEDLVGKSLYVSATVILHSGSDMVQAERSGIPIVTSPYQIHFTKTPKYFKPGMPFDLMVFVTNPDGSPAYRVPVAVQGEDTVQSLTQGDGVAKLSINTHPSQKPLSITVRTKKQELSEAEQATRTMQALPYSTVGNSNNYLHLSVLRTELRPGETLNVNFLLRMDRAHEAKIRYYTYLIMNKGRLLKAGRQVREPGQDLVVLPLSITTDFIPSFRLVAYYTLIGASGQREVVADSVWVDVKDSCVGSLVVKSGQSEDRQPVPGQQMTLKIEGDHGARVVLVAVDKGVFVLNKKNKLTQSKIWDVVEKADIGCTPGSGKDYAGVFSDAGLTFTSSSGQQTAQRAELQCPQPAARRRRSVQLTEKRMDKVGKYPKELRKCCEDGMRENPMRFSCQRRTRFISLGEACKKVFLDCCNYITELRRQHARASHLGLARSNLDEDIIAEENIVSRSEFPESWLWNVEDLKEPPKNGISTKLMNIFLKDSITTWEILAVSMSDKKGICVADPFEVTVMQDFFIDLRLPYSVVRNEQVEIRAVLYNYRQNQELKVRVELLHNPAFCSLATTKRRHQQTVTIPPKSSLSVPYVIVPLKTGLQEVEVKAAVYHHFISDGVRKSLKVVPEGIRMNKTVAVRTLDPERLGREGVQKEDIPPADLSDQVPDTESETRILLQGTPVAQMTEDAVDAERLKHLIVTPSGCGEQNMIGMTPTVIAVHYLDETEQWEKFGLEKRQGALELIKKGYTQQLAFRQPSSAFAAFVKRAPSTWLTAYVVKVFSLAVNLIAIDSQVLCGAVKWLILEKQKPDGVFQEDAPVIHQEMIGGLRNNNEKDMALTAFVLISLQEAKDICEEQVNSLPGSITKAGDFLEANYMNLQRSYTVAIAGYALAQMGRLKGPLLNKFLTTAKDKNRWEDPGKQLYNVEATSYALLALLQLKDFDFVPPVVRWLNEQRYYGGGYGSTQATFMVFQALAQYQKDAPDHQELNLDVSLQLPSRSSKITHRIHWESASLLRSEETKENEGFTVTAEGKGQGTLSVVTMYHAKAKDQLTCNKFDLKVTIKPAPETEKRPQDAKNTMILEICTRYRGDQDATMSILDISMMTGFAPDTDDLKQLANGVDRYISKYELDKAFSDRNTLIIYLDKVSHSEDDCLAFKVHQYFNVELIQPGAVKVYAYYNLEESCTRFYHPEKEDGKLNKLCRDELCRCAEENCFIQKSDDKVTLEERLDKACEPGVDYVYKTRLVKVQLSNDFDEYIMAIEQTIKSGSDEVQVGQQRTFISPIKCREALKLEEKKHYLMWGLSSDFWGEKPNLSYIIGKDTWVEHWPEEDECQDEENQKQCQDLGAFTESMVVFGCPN
# No constants are given. Whether binding was seen depends on the method and setting. Some entries that bind do so weakly or less than the wild type.
# What was measured:
# [1] = molecular target: soluble full length CR2 (human) (UniProt P20023); experiment: competitive ELISA; soluble C3d mutant as competitor against plate-bound wild type C3d
# [2] = molecular target: soluble full length CR2 (human) (UniProt P20023); experiment: competitive ELISA; soluble C3d as competitor against plate-bound wild type C3d
binding [1],binding [2],Substance
binds,,"C3d mutant Gln105Ala, Leu116Ala, Glu117Ala (from UniProt P01024 996-1303) (ligand)"
,binds,"human complement C3d, wild type (from UniProt P01024 996-1303) (ligand)"
